No constants are given. Whether binding was seen depends on the method and setting. Binding seen in cells or lysates may run through a third protein. Some results given as binding are weak or reduced against the parent protein; the word gives no strength. Where a sequence is shown, tags or fusion partners need not be part of it.
T1: HA-ZFP36L1 (ZFP36 ring finger protein like 1) (human) (UniProt Q07352)
T1 sequence: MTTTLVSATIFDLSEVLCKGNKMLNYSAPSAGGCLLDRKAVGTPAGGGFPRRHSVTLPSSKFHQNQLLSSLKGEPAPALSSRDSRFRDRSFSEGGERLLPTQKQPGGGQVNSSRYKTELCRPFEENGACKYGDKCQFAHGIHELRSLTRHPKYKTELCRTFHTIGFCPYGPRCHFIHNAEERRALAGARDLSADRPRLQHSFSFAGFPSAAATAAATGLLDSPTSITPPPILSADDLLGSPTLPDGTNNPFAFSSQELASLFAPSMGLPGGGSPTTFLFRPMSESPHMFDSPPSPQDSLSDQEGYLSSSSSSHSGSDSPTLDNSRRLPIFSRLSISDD

Chains of the proteins cited; added tags and fusions are not shown.
UniProt Q9UIV1: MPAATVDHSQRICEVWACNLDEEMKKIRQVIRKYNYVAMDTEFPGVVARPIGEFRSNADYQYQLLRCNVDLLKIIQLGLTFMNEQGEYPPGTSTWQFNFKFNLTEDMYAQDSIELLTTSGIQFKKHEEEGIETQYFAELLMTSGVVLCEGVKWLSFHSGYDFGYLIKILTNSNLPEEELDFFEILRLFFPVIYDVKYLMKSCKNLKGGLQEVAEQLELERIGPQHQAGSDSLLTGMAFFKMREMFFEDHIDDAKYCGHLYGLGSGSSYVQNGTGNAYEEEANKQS


Tests used:
[1] = target: T1, HA-ZFP36L1 (ZFP36 ring finger protein like 1) (human); test: co-IP; lysate of HepG2 cells transfected with HA-ZFP36L1, immunoprecipitated with anti-HA, immunoblot for endogenous CNOT7; cells treated with or without U0126 for one hour before TCN or PMA for four hours (Figure 5b)
FLAG-CNOT7 (human) = FLAG-CNOT7 (human) (UniProt Q9UIV1); test: co-IP; HepG2 lysate immunoprecipitated with anti-FLAG (F7425) overnight at 4 °C, Protein G Mag Sepharose, washed with co-IP buffer, immunoblot; cells treated with or without U0126 for one hour before TCN or PMA for four hours (Figure 5a, 5c)

| binding [1] | binding (FLAG-CNOT7 (human)) | Molecule |
| --- | --- | --- |
| binds | – | endogenous CNOT7 (from UniProt Q9UIV1 1-285) |
| – | binds | HA-ZFP36L1 (ZFP36 ring finger protein like 1) (protein, UniProt Q07352 1-338) MTTTLVSATIFDLSEVLCKGNKMLNYSAPSAGGCLLDRKAVGTPAGGGFPRRHSVTLPSSKFHQNQLLSSLKGEPAPALSSRDSRFRDRSFSEGGERLLPTQKQPGGGQVNSSRYKTELCRPFEENGACKYGDKCQFAHGIHELRSLTRHPKYKTELCRTFHTIGFCPYGPRCHFIHNAEERRALAGARDLSADRPRLQHSFSFAGFPSAAATAAATGLLDSPTSITPPPILSADDLLGSPTLPDGTNNPFAFSSQELASLFAPSMGLPGGGSPTTFLFRPMSESPHMFDSPPSPQDSLSDQEGYLSSSSSSHSGSDSPTLDNSRRLPIFSRLSISDD |
| – | binds | endogenous ZFP36L1 (protein, UniProt Q07352 1-338) MTTTLVSATIFDLSEVLCKGNKMLNYSAPSAGGCLLDRKAVGTPAGGGFPRRHSVTLPSSKFHQNQLLSSLKGEPAPALSSRDSRFRDRSFSEGGERLLPTQKQPGGGQVNSSRYKTELCRPFEENGACKYGDKCQFAHGIHELRSLTRHPKYKTELCRTFHTIGFCPYGPRCHFIHNAEERRALAGARDLSADRPRLQHSFSFAGFPSAAATAAATGLLDSPTSITPPPILSADDLLGSPTLPDGTNNPFAFSSQELASLFAPSMGLPGGGSPTTFLFRPMSESPHMFDSPPSPQDSLSDQEGYLSSSSSSHSGSDSPTLDNSRRLPIFSRLSISDD |

Source: PMC7583736
